The exact form of at least one protein or probe is not confirmed. For some assays here: A negative result means that nothing was seen under these conditions. For some assays here: At least one verdict rests on a figure or table, not on a statement of the authors. For some assays here: Weaker means in comparison with the reference protein, sequence or condition of that experiment. For some assays here: Tags and fusion partners may be left off the protein sequences shown.

Consider 45 sequences from article PMC9928087, “Plasmids manipulate bacterial behaviour through translational regulatory crosstalk”.

Series [1] concerns T1, RsmQ (Pseudomonas fluorescens SBW25 plasmid pQBR103).
T1 sequence (looked up, limits assumed): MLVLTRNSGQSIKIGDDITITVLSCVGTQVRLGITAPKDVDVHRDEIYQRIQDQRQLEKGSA
The series can be described thus: SPR (ReDCaT). To be noted: HBS-EP+ (10 mM HEPES, 150 mM NaCl, 3 mM EDTA, 0.05% v/v Tween 20, pH 7.4), 20 C, Biacore 8K, ReDCaT SA chip, high values mean tight binding, protein details: C-terminal TEV site + 6xHis, counted as no binding.

The test system is the same in series [2]. The series can be described thus: SPR. The following applies: SPR (ReDCaT SA chip, Biacore 8K): 10 mM HEPES, 150 mM NaCl, 3 mM EDTA, 0.05% Tween 20, pH 7.4, 20 C, RsmQ 100 and 1000 nM (Fig 4: 100-1000 nM), recombinant protein, protein details: C-terminal TEV site + 6xHis.
In series [3] the target is T2, RsmE (Pseudomonas fluorescens SBW25) (UniProt A0ACA7PAD1).
T2 sequence (looked up, limits assumed): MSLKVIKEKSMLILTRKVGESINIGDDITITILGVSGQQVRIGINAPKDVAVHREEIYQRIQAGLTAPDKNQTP
Nature of the series: SPR (ReDCaT). The following applies: 100 nM protein, HBS-EP+ (10 mM HEPES, 150 mM NaCl, 3 mM EDTA, 0.05% v/v Tween 20, pH 7.4), 20 C, Biacore 8K, ReDCaT SA chip, high values mean tight binding, recombinant protein, protein details: His tag (pET28a NdeI/XhoI), counted as no binding.

The target of series [4] is T3, RsmE (Pseudomonas fluorescens SBW25) (UniProt A0ACG8AC87).
T3 sequence (looked up, limits assumed): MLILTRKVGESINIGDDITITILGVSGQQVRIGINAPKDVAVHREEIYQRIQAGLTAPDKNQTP
The series can be described thus: SPR. The following applies: 100 nM protein; SPR (ReDCaT SA chip, Biacore 8K): 10 mM HEPES, 150 mM NaCl, 3 mM EDTA, 0.05% Tween 20, pH 7.4, 20 C; RsmQ 100 and 1000 nM (Fig 4: 100-1000 nM); recombinant protein; protein details: His tag (pET28a NdeI/XhoI); folded or branched DNA.

The mark [5] stands for this setting: recombinant …, single-stranded DNA, letters put together from the description.
[6] abbreviates: single-stranded DNA, letters put together from the description.
[7] abbreviates: 100 nM protein, recombinant protein, single-stranded DNA, letters put together from the description.
Where [8] appears, read: linear, binds but dissociates quickly, single-stranded DNA.
Where [9] appears, read: 100 nM protein, folded or branched DNA.
The mark [10] stands for this setting: 100 nM protein, recombinant protein, folded or branched DNA.
[11] abbreviates: folded or branched DNA, letters put together from the description.

In the case of AAAGCCCCGCTTCGGCGGGGTTTT [RsmY 95-end], in series [1] (setting [5]), the binding signal is -1.22 %Rmax.

As for “ATGGACGTCGCGCAGGAAGCGCAAACCTACCCTACGTCCTCCTGC [RsmY 1-25]”, the binding result in series [2] (folded or branched DNA) was “binds”.

With ATGTCAGGGAAACAGTCTGCAAAGC [RsmY 75-99], the binding signal in series [1] (setting [5]) worked out at 0.723 %Rmax.

CAAGACACCACAGAGCAGCA [NoBind_NoHP]: the binding signal in series [3] (setting [6]) was -6.95 %Rmax; in series [1] (setting [7]), 0.403 %Rmax.

In the case of CAAGACACCCCAGAGCAGCA [NoBind_NoHP_2], the binding signal in series [3] (setting [6]) is -8.22 %Rmax; in series [1] (setting [7]), -0.882 %Rmax.

Regarding “CAAGGAGACAGAGCAACAGGA [2bind_NoHP (2 x GGA linear)]”, the binding signal in series [3] (setting [6]) was -13 %Rmax.

As to “CAGGAAAGGACAGAGCACGGA [2Full_bind_NoHP (2 x ACGGA linear)]”, the binding signal in series [3] (setting [6]) is -13.4 %Rmax.

On to “CAGGAACGGACAGAGC [Full_Bind_NoHP (linear ACGGA)]”, for which the binding signal in series [3] (single-stranded DNA) is -10.4 %Rmax.

Consider “CAGGAACGGACAGAGCCCTACCCTACGTCCTCCTGC [Full_Bind_NoHP (linear ACGGA)]”, for which, in series [2] (setting [8]), the binding result is listed as “binds more weakly”.

As to “CAGGACAGGACAGAGC [Bind_NoHP (linear GGA)]”, in series [3] (single-stranded DNA), the binding signal is -9.79 %Rmax.

For the sequence “CAGGACAGGACAGAGCCCTACCCTACGTCCTCCTGC [Bind_NoHP (linear GGA)]”, in series [2] (setting [8]), the binding result is listed as “binds more weakly”.

“CCGCGCACCAAGCGCAAACCCTACCCTACGTCCTCCTGC [NoBind_HP]”: the binding result in series [2] (setting [9]) is “no binding”.

Consider “CCGCGCACCGAAGCGCAAAC [FullBind_ACCGA_HP]”, for which the binding signal in series [3] (folded or branched DNA) was -5.99 %Rmax; in series [1] (100 nM protein, run beside RsmE, recombinant protein, folded or branched DNA), -4.73 %Rmax; in series [1] (setting [10]) it was -1.36 %Rmax.

In the case of “CCGCGCACCGAAGCGCAAACCCTACCCTACGTCCTCCTGC [FullBind_ACCGA_HP]”, the binding result in series [2] (setting [9]) is on record as “binds more weakly”.

For the sequence CCGCGCACGAAGCGCAAAC [Bind_CGA_HP], the binding signal in series [3] (folded or branched DNA) was -6.54 %Rmax.

With “CCGCGCACGAAGCGCAAACCCTACCCTACGTCCTCCTGC [Bind_CGA_HP]”, in series [2] (setting [9]), the binding result is on record as “binds more weakly”.

Take “CCGCGCACGCAAGCGCAAAC [FullBind_ACGCA_HP]”: the binding signal in series [3] (folded or branched DNA) is -6.03 %Rmax; in series [1] (setting [10]), 0.414 %Rmax.

“CCGCGCACGCAAGCGCAAACCCTACCCTACGTCCTCCTGC [FullBind_ACGCA_HP]”: the binding result in series [2] (setting [9]) is on record as “binds more weakly”.

Take “CCGCGCACGGAAGCGCAACGGAAC [Full_2Bind_HP (2 x ACGGA hairpin)]”: the binding signal in series [3] (setting [11]) was -6.47 %Rmax.

Consider “CCGCGCACGGCAGCGCAAAC [FullBind_ACGGC_HP]”, for which the binding signal is -5.83 %Rmax in series [3] (folded or branched DNA) and 1.4 %Rmax in series [1] (setting [10]).

With “CCGCGCACGGCAGCGCAAACCCTACCCTACGTCCTCCTGC [FullBind_ACGGC_HP]”, in series [2] (setting [9]), the binding result is “binds more weakly”.

Turning to “CCGCGCACGGTAGCGCAAAC [FullBind_ACGGT_HP]”, the binding signal in series [3] (folded or branched DNA) is -6.46 %Rmax; in series [1] (setting [10]), 0.458 %Rmax.

As for “CCGCGCACGGTAGCGCAAACCCTACCCTACGTCCTCCTGC [FullBind_ACGGT_HP]”, in series [2] (setting [9]), the binding result is “binds more weakly”.

Consider “CCGCGCACGTAAGCGCAAAC [FullBind_ACGTA_HP]”, for which the binding signal is -6.43 %Rmax in series [3] (folded or branched DNA) and -0.342 %Rmax in series [1] (setting [10]).

On to “CCGCGCACGTAAGCGCAAACCCTACCCTACGTCCTCCTGC [FullBind_ACGTA_HP]”, for which the binding result in series [2] (setting [9]) is “binds more weakly”.

As to “CCGCGCACTGAAGCGCAAAC [FullBind_ACTGA_HP]”, the binding signal in series [3] (folded or branched DNA) is -6.32 %Rmax.

Consider “CCGCGCACTGAAGCGCAAACCCTACCCTACGTCCTCCTGC [FullBind_ACTGA_HP]”, for which, in series [2] (setting [9]), the binding result is given as “binds more weakly”.

Consider CCGCGCAGCAAGCGCAAAC [Bind_GCA_HP], for which the binding signal is -6.58 %Rmax in series [3] (folded or branched DNA) and -1.27 %Rmax in series [1] (setting [10]).

As to “CCGCGCAGCAAGCGCAAACCCTACCCTACGTCCTCCTGC [Bind_GCA_HP]”, the binding result in series [2] (setting [9]) is recorded as “binds more weakly”.

On to “CCGCGCAGGAAGCGCAAAC [Bind_HP (GGA hairpin)]”, for which the binding signal in series [3] (folded or branched DNA) was -6.07 %Rmax.

Take CCGCGCAGGCAGCGCAAAC [Bind_GGC_HP]: the binding signal in series [3] (folded or branched DNA) is -5.39 %Rmax; in series [1] (setting [10]), -0.383 %Rmax.

Take “CCGCGCAGGCAGCGCAAACCCTACCCTACGTCCTCCTGC [Bind_GGC_HP]”: the binding result in series [2] (setting [9]) is “binds more weakly”.

Take “CCGCGCAGGGAAGCGCAAACCCTACCCTACGTCCTCCTGC [FullBind_AGGGA_HP]”: the binding result in series [4] was “binds”; in series [2] (100 nM protein, slight preference, folded or branched DNA) it was “binds”.

CCGCGCAGGTAGCGCAAAC [Bind_GGT_HP]: the binding signal in series [3] (folded or branched DNA) was -5.79 %Rmax; in series [1] (setting [10]), 1.16 %Rmax.

“CCGCGCAGGTAGCGCAAACCCTACCCTACGTCCTCCTGC [Bind_GGT_HP]”: the binding result in series [2] (setting [9]) is given as “binds more weakly”.

For CCGCGCAGTAAGCGCAAAC [Bind_GTA_HP], the binding signal in series [3] (folded or branched DNA) is -5.98 %Rmax; in series [1] (setting [10]), 0.124 %Rmax.

On to “CCGCGCAGTAAGCGCAAACCCTACCCTACGTCCTCCTGC [Bind_GTA_HP]”, for which, in series [2] (setting [9]), the binding result is reported as “binds more weakly”.

In the case of CCGCGCATGAAGCGCAAAC [Bind_TGA_HP], the values for the binding signal in series [3] (folded or branched DNA) and in series [1] (setting [10]) were -5.85 %Rmax and 0.288 %Rmax, respectively.

As for “CCGCGCATGAAGCGCAAACCCTACCCTACGTCCTCCTGC [Bind_TGA_HP]”, the binding result in series [2] (setting [9]) is given as “binds more weakly”.

Turning to “CCGCGCCCGGAAGCGCAAAC [FullBind_CCGGA_HP]”, in series [3] (folded or branched DNA), the binding signal is -6.75 %Rmax.

As to “CCGCGCCGGAAGCGCAGGAAC [2Bind_HP (2 x GGA hairpin)]”, the binding signal in series [3] (setting [11]) is -7.05 %Rmax.

On to “CCGCGCTCGGAAGCGCAAAC [FullBind_TCGGA_HP]”, for which the binding signal in series [3] (folded or branched DNA) was -6.25 %Rmax.

CTTACTTTGGAACTCTCTAAGATCA [RsmZ 1-25]: the binding signal in series [1] (setting [5]) is 0.404 %Rmax.

In the case of “GCCCTGTGTCCACGGATTGGCACAACCTACCCTACGTCCTCCTGC [RsmZ 26-50]”, in series [2] (folded or branched DNA), the binding result is “binds”.

In the case of “GGGAAAAAATGTGGGCGGGTCATACCGCCCCTTTTTTT [RsmZ 127-end]”, the binding signal in series [1] (recombinant …, single-stranded DNA) was found to be 0.954 %Rmax.
